## Screening data, single-dose tests

By UniProt entry, the sequences of proteins in these tests, tags left out. Residues count along the entry.
UniProt Q4DA54, 1-478: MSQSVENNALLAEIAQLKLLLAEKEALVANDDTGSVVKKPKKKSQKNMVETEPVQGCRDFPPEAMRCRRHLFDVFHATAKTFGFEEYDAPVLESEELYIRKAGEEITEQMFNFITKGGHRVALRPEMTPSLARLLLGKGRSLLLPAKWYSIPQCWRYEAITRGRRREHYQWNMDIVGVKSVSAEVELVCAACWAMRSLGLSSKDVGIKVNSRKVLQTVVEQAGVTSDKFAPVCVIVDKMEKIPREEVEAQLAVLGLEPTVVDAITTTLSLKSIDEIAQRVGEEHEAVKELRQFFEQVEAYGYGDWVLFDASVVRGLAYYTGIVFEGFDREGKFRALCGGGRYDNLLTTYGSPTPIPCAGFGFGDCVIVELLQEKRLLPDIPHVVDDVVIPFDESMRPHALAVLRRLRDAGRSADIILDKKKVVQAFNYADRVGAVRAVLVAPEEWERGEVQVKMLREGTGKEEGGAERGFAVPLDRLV
UniProt P9WNZ1, whole entry: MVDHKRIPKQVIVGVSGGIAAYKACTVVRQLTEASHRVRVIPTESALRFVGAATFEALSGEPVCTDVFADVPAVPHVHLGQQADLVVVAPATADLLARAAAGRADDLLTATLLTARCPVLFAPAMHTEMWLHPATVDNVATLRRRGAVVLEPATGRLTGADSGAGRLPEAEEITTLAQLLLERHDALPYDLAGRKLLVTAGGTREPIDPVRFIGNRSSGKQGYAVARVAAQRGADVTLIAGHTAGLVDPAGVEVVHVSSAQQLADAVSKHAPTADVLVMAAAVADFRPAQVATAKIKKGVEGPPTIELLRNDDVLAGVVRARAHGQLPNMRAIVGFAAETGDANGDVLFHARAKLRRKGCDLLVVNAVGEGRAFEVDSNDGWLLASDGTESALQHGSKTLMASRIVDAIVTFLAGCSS
UniProt A4I591, 1-473: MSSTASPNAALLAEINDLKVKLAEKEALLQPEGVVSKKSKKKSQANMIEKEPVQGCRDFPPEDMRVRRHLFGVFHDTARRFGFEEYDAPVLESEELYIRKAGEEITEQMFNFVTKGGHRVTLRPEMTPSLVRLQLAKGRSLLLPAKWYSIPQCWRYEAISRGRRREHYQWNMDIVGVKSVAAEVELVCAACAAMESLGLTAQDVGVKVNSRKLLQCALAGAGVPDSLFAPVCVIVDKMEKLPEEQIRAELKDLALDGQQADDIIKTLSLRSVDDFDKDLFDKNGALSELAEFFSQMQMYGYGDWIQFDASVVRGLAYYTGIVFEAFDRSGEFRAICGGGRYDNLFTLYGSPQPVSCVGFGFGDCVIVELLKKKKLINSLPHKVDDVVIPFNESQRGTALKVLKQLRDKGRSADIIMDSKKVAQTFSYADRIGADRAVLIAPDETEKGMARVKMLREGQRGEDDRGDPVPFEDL

The filed quantity is “Percent Effect” (%).
How 0% and 100% were set is not recorded. Most values in the screen are low, and negative values occur.
This is an unselected part of the compounds tested.
Two or more numbers in one place are separate tests of the same structure; such repeats can differ widely.
A dash means the value is not listed here; it may have been measured.

TcHisRS: 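Enzyme assay of histidyl-tRNA synthetase; the read-out is not stated. Target: Histidine-tRNA ligase, Trypanosoma cruzi CL Brener (UniProt Q4DA54). Compounds at 30 µM. The record gives no direction; compounds that gave an IC50 in retests scored well above the rest, so higher reads as stronger inhibition. Of about 69,000 compounds tested this way, about 31 (0.045%) reached 50% or more in at least one test.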
Leishmania in macrophages: 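Cell assay of Leishmania donovani living inside macrophages; the read-out is not stated. Tested at 30 µM. The record gives no direction; compounds that gave an IC50 in retests scored well above the rest, so higher reads as stronger inhibition. Size under these conditions: about 69,000 compounds, about 1,000 of them at 50% or above in at least one test.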
Toxoplasma: 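Assay of Toxoplasma gondii numbers, read through their beta-galactosidase reporter with a colour substrate. Tested at 10 µM. Higher reads as fewer parasites (inferred from which compounds were picked for retests). About 67,000 compounds were tested under these conditions; 0.38% (about 260) showed 50% or more at least once.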
CoaBC: 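Enzyme assay of CoaBC with a phosphate dye (Biomol Green) read at 650 nm. Target: Coenzyme A biosynthesis protein CoaBC, Mycobacterium tuberculosis (UniProt P9WNZ1). Concentration: 30 µM. Higher reads as stronger inhibition, judged from the few compounds that gave an IC50. Most strong results did not repeat in a second test. About 67,000 compounds were tested under these conditions; 0.06% (about 40) showed 50% or more at least once.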
LiHisRS: 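Enzyme assay of histidyl-tRNA synthetase; the read-out is not stated. Target: Histidine-tRNA ligase, Leishmania infantum (UniProt A4I591). Tested at 30 µM. Higher reads as stronger inhibition (inferred: compounds with an IC50 in retests scored well above the rest). The assay is labelled LdHisRS but filed under L. infantum. About 69,000 compounds were tested under these conditions; 0.6% (about 410) showed 50% or more at least once.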

structure	TcHisRS	Leishmania in macrophages	Toxoplasma	CoaBC	LiHisRS
Cc1cccc(CC(=O)NS(=O)(=O)c2ccc(F)c(F)c2)c1	4.433	16.67	-0.1181	-3.481	9.091
O=C(NCc1ccccc1-n1cccn1)N1CCN2CCCCC2C1 (stereo not drawn)	-2.642	17.11	4.272	4.824	20.27
Cc1ccc(-n2ncc(C(=O)NC3CCCCC3)c2N)cc1	8.427	28.48	3.022	-6.237	17.95
COCCC(=O)N1C[C@H]2CCC[C@@]2(COC)C1	0.5587	-	-	-1.091	5.769
Cc1cc(-c2cnc(NCc3cccnc3)nc2C(C)(C)C)on1	3.825	43.56	1.054	9.585	10.95
Cc1noc(C)c1CN1CCOCC12CCN(c1ncccn1)CC2	11.05	-	-	4.208	15.32
CCCc1nn(C2CCCN(C(C)C)C2=O)c(=O)o1 (stereo not drawn)	5.464	-18.62	1.353	11	13.7
COc1cc(-c2nc3c([nH]2)CCCNC3=O)ccc1O	9.091	21.87	4.719	5.051	35.11
CCS(=O)(=O)N1CCc2ccc(NC(=O)NC3CCCCC3)cc21	8.543	-19.71	7.718	4.212	8.989
Cc1nc(-c2ccc(Cl)s2)sc1C(=O)N(C)CC(N)=O	6.404	14.14	-0.1181	-0.9494	16.88
CC(NCc1ccsc1)c1ccc(OCc2nccn2C)cc1 (stereo not drawn)	8.287	-8.339	-7.904	-6.796	2.41
CCc1cc(C(=O)N2CCCC(c3[nH]ncc3S(C)(=O)=O)C2)no1 (stereo not drawn)	6.593	4.061 & 2.166	3.591	4.369	7.246
CCC(Nc1nc(C(C)C)nc2c1cnn2C)c1ccc(O)cc1 (stereo not drawn)	-14.04	21.69	10.74	0.6036	-20.51
CCN1C(=O)C(c2ccccc2)CC12CCN(Cc1cccnc1)CC2 (stereo not drawn)	9.709	-	-	-1.018	21.36
c1cnc2c(-c3nccn3C[C@@H]3CCCN4CCCC[C@H]34)cccc2c1	13.09	-	-	3.086	10.75
Cc1ncsc1CCN(C)Cc1cc2n(n1)CCN(S(C)(=O)=O)C2	4.516	43.38	3.615	-4.589	21.21
CC(=O)N1CCc2c(nc(N(C)C)nc2N(C)CC2CCCO2)C1 (stereo not drawn)	-1.064	8.441	-3.87	1.025	10
[H][C@]12CN(Cc3cccnc3OC)CC[C@@]1(O)CCN(C(=O)C1CCC1)C2	-	9.89	7.193	-	-
CN(C)C(=O)CN1CC[C@]2(CN(CC3CC3)C[C@H]2c2ccccc2)C1=O.O=C(O)C(F)(F)F	-	14.25	14.22	-	-
Cc1cccc(C(=O)N(CC(=O)O)CC(C)C)c1	1.98	7.036	-	1.58	8.696
COc1ccc(N2CCN(C(=O)C(C)n3cc(Br)cn3)CC2)cc1 (stereo not drawn)	3.478	4.766	13.54	14.09	12.07
CN1C(=O)c2ccc(C(=O)N(Cc3cnn(C)c3)C3CC3)cc2C1=O	1.493	47.16	-5.009	-2.635	3.614
C=C(C)CNC(C)c1ccc(S(C)(=O)=O)c(F)c1 (stereo not drawn)	0	-0.3552	-1.023	6.226	4.505
COc1ccc(CN(Cc2nc(C)no2)C2CCCCC2)cc1OC	6.395	45.35	-8.641	-5.044	1.786
Cc1ccccc1CC(=O)NCCNc1nccc(C(F)(F)F)n1	10.23	-4.046	-11.48	0.6424	6.667
Cc1ccc(N2CC[C@H]3C[C@@H](C(=O)N4CCOCC4)O[C@H]3C2)nn1	3.867	-	-	6.684	18.05
CCN(CC)C(CNCc1ccc(C)o1)c1ccco1 (stereo not drawn)	4.545	14.66	0.4263	-0.3628	9.677
Cc1nc(C2CCN(C(C)C)CC2)sc1Br	6.154	2.293	-	-1.663	7.042
Cc1cnc(C(=O)N2CCC3(CCN(Cc4ccccn4)C3=O)C2)cn1.O=C(O)C(F)(F)F (stereo not drawn)	-	-17.44	-15.91	-	-
Cc1nc(C2CCCN2C(=O)Cc2ccc3c(c2)OCO3)nc(O)c1C (stereo not drawn)	14.93	14.55 & 4.695	-70.77	6.083	26.32
COc1c(CNCc2cccc(Cn3ccnc3)c2)c(C)nn1C	4.511	57.06	5.112	8.897	35.71
Nc1ncc(CN2C[C@H](C3CC3)[C@@H](N)C2)cn1	3.911	2.381	9.925	-12.5	7.895
CC1CCN(c2nc3ncc4c(c3c(=O)[nH]2)CC(C)(C)CC4=O)CC1	9.278	-2.749	8.746	-9.198	12.09
Cc1ccc(CN(C)Cc2nc3c(cnn3C)c(=O)[nH]2)o1	0.8333	-4.645	3.143	3.579	9.434
COc1ccc(NC(=O)Cn2nc(C)c(C)cc2=O)cc1Cl	2.513	-5.863	6.894	-6.152	12
COc1cc(CN2CC(=O)N(c3ccc(C)cc3)CC2C)cc(OC)c1 (stereo not drawn)	1.19	9.062	-3.123	0.2451	17.78
Cc1cnc(NC(C)Cc2cnccn2)nc1N(C)C (stereo not drawn)	1.064	3.497	2.122	-2.664	1.429
F[C@@H]1CN(CC2CC2)C[C@@H]1OCc1nc2ccccc2o1	7.609	8.321	-4.823	11.7	9.459
O=C(NC1CC1)N1CCOCC2(CCN(Cc3cccs3)C2)C1 (stereo not drawn)	6.667	-	-	0.3699	4.167
CCN1CCCC1CNC(=O)c1cc(COc2cccc(F)c2)[nH]n1 (stereo not drawn)	3.863	9.782	15	-10.17	11.48
NC(=O)N1CCCC1COC(=O)c1cc(F)ccc1F (stereo not drawn)	5.172	-1.456	3.476	-4.912	7.895
CC(Cn1cccn1)NCc1csc(-c2ccc(F)cc2)n1 (stereo not drawn)	6.18	-9.613	6.1	5.433	2.564
O=S(=O)(c1cn[nH]c1)N1CCCC1c1cc[nH]n1 (stereo not drawn)	2.281	22.4	-1.58	2.843	6.207

Once more, the final 6:

F[C@@H]1CN(CC2CC2)C[C@@H]1OCc1nc2ccccc2o1 read TcHisRS: 7.609%; Leishmania in macrophages: 8.321%; Toxoplasma: -4.823%; CoaBC: 11.7%; LiHisRS: 9.459%.
O=C(NC1CC1)N1CCOCC2(CCN(Cc3cccs3)C2)C1 (stereo not drawn) read TcHisRS: 6.667%; CoaBC: 0.3699%; LiHisRS: 4.167%.
CCN1CCCC1CNC(=O)c1cc(COc2cccc(F)c2)[nH]n1 (stereo not drawn) read TcHisRS: 3.863%; Leishmania in macrophages: 9.782%; Toxoplasma: 15%; CoaBC: -10.17%; LiHisRS: 11.48%.
NC(=O)N1CCCC1COC(=O)c1cc(F)ccc1F (stereo not drawn) read TcHisRS: 5.172%; Leishmania in macrophages: -1.456%; Toxoplasma: 3.476%; CoaBC: -4.912%; LiHisRS: 7.895%.
CC(Cn1cccn1)NCc1csc(-c2ccc(F)cc2)n1 (stereo not drawn) read TcHisRS: 6.18%; Leishmania in macrophages: -9.613%; Toxoplasma: 6.1%; CoaBC: 5.433%; LiHisRS: 2.564%.
O=S(=O)(c1cn[nH]c1)N1CCCC1c1cc[nH]n1 (stereo not drawn) read TcHisRS: 2.281%; Leishmania in macrophages: 22.4%; Toxoplasma: -1.58%; CoaBC: 2.843%; LiHisRS: 6.207%.

The values are deposited in ChEMBL (CHEMBL3988442, “University of Dundee, Small-Polar-MMV Screening Library” (2021)).